Data as given in PubChem BioAssay AID686943 (Drosophila RNAi Screening Center, 2013)

Test: 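Fly genes whose loss alters ERK activation after insulin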 (primary screen)
Cells: Drosophila S2R+ haemocyte-like cells expressing YFP-tagged ERK (Rolled)
Reagent: long dsRNA against Drosophila genes
Challenge: insulin stimulation versus unstimulated cells; dose and duration not given
Measured: 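Antibody staining for doubly phosphorylated ERK divided by ERK-YFP signal, as plate z-scores, in insulin-treated and untreated cells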
Reading the numbers: replicate 1, z-score of dpERK with insulin and replicate 2, z-score of dpERK with insulin: higher = more active ERK per ERK-YFP after insulin; replicate 1, z-score of dpERK under basal conditions: higher = more basal active ERK per ERK-YFP; replicate 1, z-score of ERK-YFP with insulin: higher = more YFP-tagged ERK signal
The deposit covers about 23,000 reagents; this is an unselected part of those that have a named target and a result. 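Extra replicates exist only for a retested subset of genes; insulin dose and duration not given; both raised and lowered dpERK matter.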 Names joined by + are all predicted targets of the reagent. Not given: the amount of reagent, the time to read-out.

no.	gene	dsRNA	replicate 1, z-score of dpERK with insulin	replicate 2, z-score of dpERK with insulin	replicate 1, z-score of dpERK under basal conditions	replicate 1, z-score of ERK-YFP with insulin
1	spt4	DRSC07696	0.14	0.34	-0.51	-0.45
2	CG1671	DRSC06617	-0.38	-0.21	0.21	0.52
3	Rab27	DRSC18567	0.01	0.41	-0.85	0.69
4	CG4611	DRSC10434	1.7	0.86	0.49	0.03
5	CG10347	DRSC19352	0.89	0.69	1.32	0.08
6	ninaB	DRSC16807	-0.1	0	-0.37	0.2
7	CG14631	DRSC17792	0.41	-0.08	0.05	0.22
8	CG14631	DRSC17941	0.12	-0.14	-0.19	-0.43
9	CG8209	DRSC10970	0.75	0.06	-0.79	-0.15
10	mus101	DRSC19388	0.65	0.48	-1.9	-0.06
11	CG43428	DRSC06205	0.86	0.19	-0.11	-0.46
12	CG13926	DRSC08395	-0.18	-0.28	0.2	-0.17
13	CG5347	DRSC19942	0.72	0.19	0.36	0.46
14	CG17648	DRSC00508	0.59	0.31	-0.53	-1.05
15	ARY (retired record)	DRSC20867	-1	0.01	-0.6	0.24
16	CG11807	DRSC06087	-0.53	-1.61	1.44	1.18
17	CG4438	DRSC02746	-0.12	0.77	0.86	0.13
18	CG9970	DRSC08644	-0.8	-0.36	0.72	-0.11
19	hkb	DRSC12377	1.1	1.55	0.4	-0.41
20	lobo	DRSC14662	0.18	-0.2	-1.17	-0.19
21	lobo	DRSC14663	-0.09	-0.18	-0.78	-0.37
22	CG32639	DRSC18972	0.35	0.5	-0.98	0.23
23	CG4998	DRSC10466	0.33	0.68	0.54	-0.27
24	CG4998	DRSC22911	0.54	0.83	-0.57	0.4
25	CG15071	DRSC06504	0.4	0.37	1.24	0.55
26	CG33257	DRSC09917	0.33	0	0.54	-0.02
27	cort	DRSC02148	-0.61	0.3	-0.69	-0.14
28	Eps-15	DRSC04288	0.21	-0.24	-0.93	0.9
29	sxc	DRSC04911	-0.32	-0.35	-1.67	-0.37
30	Spn43Ab	DRSC06781	-0.48	0.11	-0.34	-0.12
31	BORCS7 + CG13430	DRSC06392	-0.22	0.16	-0.03	0.43
32	BORCS7 + CG13430	DRSC06707	-1.48	-2.32	-1.22	0.6
33	CG12546	DRSC11676	-0.07	0.05	-0.27	-0.48
34	Ir52b	DRSC06263	-0.29	0.37	1.31	1.14
35	CG4661	DRSC19910	0.61	-0.45	0.34	0.61
36	Ubqn	DRSC19581	0.44	0.1	-1.1	0
37	CG13474	DRSC10018	-2.56	-1.1	-0.32	0.46
38	CG14961	DRSC08420	-0.65	0.1	-0.28	0.35
39	CG14805	DRSC18554	0.29	-0.36	-1.12	-0.27
40	CG5199	DRSC11770	-0.53	-0.76	0.54	0.76
41	CG40378 (retired record)	DRSC20958	-0.38	0.47	0.98	-0.71
42	CG40378 (retired record)	DRSC22174	0.16	0.14	0.58	0.52
43	Rpp25	DRSC05002	2.05	0.58	0.07	-0.65
44	CG5455	DRSC15805	-0.33	0.42	-0.98	-3.91
45	CG12511	DRSC02171	-0.72	0.37	-0.01	0.22
46	CG6429	DRSC06986	3.9	0.95	-0.61	-0.17
47	Scsalpha2	DRSC16003	0.28	-0.09	-0.4	0.63
48	CG5853	DRSC01103	-0.36	-0.21	0.51	0.76
49	CG5853	DRSC02906	0.25	0.37	0.02	0.63
50	CG32485	DRSC22666	0.34	0.07	-0.18	0.77
51	betaTub65B	DRSC11393	-0.13	0.08		0.02
52	Pex2	DRSC10770	0.26	-0.41	-0.52	0.19
53	Task7	DRSC16477	0.04	0.23	0.9	0.12
54	IntS9	DRSC10493	0.27	-0.13	1.46	1.46
55	Cyp6a22	DRSC07382	0.11	-0.17	-0.57	-0.08
56	egh	DRSC18771	0.27	0.35	3.04	0.8
57	Acyp2	DRSC15336	-0.45	-1.74	-0.48	0.44

Targets listed so far whose gene name begins with A or a:
gene	dsRNA	replicate 1, z-score of dpERK with insulin	replicate 2, z-score of dpERK with insulin	replicate 1, z-score of dpERK under basal conditions	replicate 1, z-score of ERK-YFP with insulin
ARY (retired record)	DRSC20867	-1	0.01	-0.6	0.24
Acyp2	DRSC15336	-0.45	-1.74	-0.48	0.44
